In patent US10563263B2, “Genetic polymorphisms associated with statin response and cardiovascular diseases, methods of detection and uses thereof” (CELERA CORPORATION, priority 2010, dated 2020):
This continues a long series; more values of the same kind are listed elsewhere.

Tested on: CVD (CHD or stroke)
Assay: CARE: SNP by pravastatin treatment interaction, logistic regression (synergy index), CVD endpoint
Format: in vivo, human
From the text: CARE was a secondary prevention trial and WOSCOPS was a primary prevention trial.
The CHD endpoint was defined in the analyses herein of CARE as a composite endpoint of fatal CHD, definite non-fatal MI, or revascularization, and was defined in the analyses herein of WOSCOPS as a composite endpoint of death from CHD, nonfatal MI, or revascularization. In both the CARE and WOSCOPS analyses herein, the CVD endpoint was defined as a composite endpoint of CHD or stroke. […] Revascularization, which can include percutaneous transluminal coronary angioplasty (PTCA), stent placement, and coronary artery bypass graft (CABG), are medical interventions that indicate the presence of CHD.
Cohort and case-only study designs were used to identify SNPs associated with response to statin treatment.
For each SNP, a logistic regression model having treatment status as the dependent variable and SNP as the independent predictor variable was performed, with terms for age, sex and race included in the model as covariates. The anti-log of the regression coefficient corresponding to the SNP is an estimate of the synergy index (SI) (Davis et al., “Imputing gene-treatment interactions when the genotype distribution is unknown using case-only and putative placebo analyses-a new method for the Genetics of Hypertension Associated Treatment (GenHAT) study”, Statistics in Medicine 23: (2004), pages 2413-2427). The SI is a ratio of odds ratios: for example in the CARE and WOSCOPS studies, the SI represents the factor by which the odds-ratio of statin treatment, compared with placebo, among major homozygous individuals is multiplied by in order to obtain the odds-ratio of treatment vs. placebo among heterozygous individuals; and multiplied by a second time to obtain the odds-ratio of treatment vs. placebo in minor homozygous individuals. […] In a randomized clinical trial, genotype and treatment are independent by design.

In the case of `CC[C@H](C)C(=O)O[C@H]1C[C@H](O)C=C2C=C[C@H](C)[C@H](CC[C@@H](O)C[C@@H](O)CC(=O)O)[C@H]21` [Pravastatin, pravastatin], the OR (SNP rs6495554, allele (A1) C, model REC, Imputed) was 3.433, the OR (SNP rs6495555, allele (A1) C, model REC, Imputed) was 3.433 and the OR (SNP rs6544728, allele (A1) T, model DOM, Imputed) was 1.526. For the same compound, the OR (SNP rs6550705, allele (A1) C, model ADD, Imputed) was 1.366, the OR (SNP rs6593441, allele (A1) A, model DOM, Imputed) was 1.577 and the OR (SNP rs6719700, allele (A1) A, model ADD, Imputed) was 1.427. It also gave an OR (SNP rs6719700, allele (A1) A, model DOM, Imputed) of 1.536, an OR (SNP rs6722640, allele (A1) T, model DOM, Imputed) of 0.682 and an OR (SNP rs6743092, allele (A1) T, model ADD, Imputed) of 1.36. It also gave an OR (SNP rs6743092, allele (A1) T, model REC, Imputed) of 1.57, an OR (SNP rs6744759, allele (A1) G, model REC, Imputed) of 1.692 and an OR (SNP rs6746170, allele (A1) A, model DOM, Imputed) of 1.528. For the same compound, the OR (SNP rs6759922, allele (A1) A, model DOM, Imputed) was 0.6185, the OR (SNP rs6791296, allele (A1) T, model ADD, Imputed) was 0.6225 and the OR (SNP rs6792662, allele (A1) G, model DOM, Imputed) was 1.844. The OR (SNP rs6805139, allele (A1) G, model DOM, Imputed) was 1.812, the OR (SNP rs6806043, allele (A1) C, model ADD, Imputed) was 1.366 and the OR (SNP rs6867153, allele (A1) A, model REC, Imputed) was 0.528. It also gave an OR (SNP rs6871041, allele (A1) G, model DOM, Imputed) of 0.6, an OR (SNP rs6888012, allele (A1) A, model REC, Imputed) of 0.528 and an OR (SNP rs6908481, allele (A1) C, model REC, Imputed) of 1.96. It also gave an OR (SNP rs7032231, allele (A1) A, model ADD, Imputed) of 1.212, an OR (SNP rs7067638, allele (A1) T, model DOM, Imputed) of 1.6 and an OR (SNP rs7077799, allele (A1) A, model DOM, Imputed) of 1.625. For the same compound, the OR (SNP rs7082163, allele (A1) A, model ADD, Imputed) was 1.58, the OR (SNP rs7082163, allele (A1) A, model DOM, Imputed) was 1.684 and the OR (SNP rs7089661 allele C, model DOM, Imputed) was 1.62. For the same compound, the OR (SNP rs7101319 allele C, model ADD, Imputed) was 1.567, the OR (SNP rs7101319 allele C, model DOM, Imputed) was 1.667 and the OR (SNP rs7134262 allele T, model REC, Imputed) was 2.449. The OR (SNP rs7138300 allele C, model ADD, Imputed) was 0.7218, the OR (SNP rs7138300 allele C, model DOM, Imputed) was 0.6464 and the OR (SNP rs7163931 allele G, model REC, Imputed) was 3.433. The OR (SNP rs7171486 allele G, model DOM, Genotyped) was 0.7681, the OR (SNP rs7172611 allele G, model REC, Imputed) was 3.433 and the OR (SNP rs7172689 allele T, model REC, Imputed) was 3.433. It also gave an OR (SNP rs7180245 allele A, model REC, Imputed) of 3.433, an OR (SNP rs7220603 allele A, model ADD, Genotyped) of 0.7182 and an OR (SNP rs7282518 allele T, model ADD, Imputed) of 1.688. The OR (SNP rs7283476 allele T, model ADD, Imputed) was 0.3701, the OR (SNP rs7283476 allele T, model DOM, Imputed) was 0.3345 and the OR (SNP rs7298255 allele A, model ADD, Imputed) was 0.7363. The OR (SNP rs7298255 allele A, model DOM, Imputed) was 0.6348, the OR (SNP rs7305832 allele C, model REC, Imputed) was 2.46 and the OR (SNP rs7392620 allele C, model ADD, Imputed) was 0.7778. The OR (SNP rs7446891 allele G, model DOM, Imputed) was 0.6617, the OR (SNP rs7448641 allele C, model ADD, Imputed) was 0.2198 and the OR (SNP rs7448641 allele C, model DOM, Imputed) was 0.2258. The OR (SNP rs7499402 allele A, model ADD, Genotyped) was 1.746, the OR (SNP rs7529851 allele A, model ADD, Imputed) was 0.7957 and the OR (SNP rs7573951 allele G, model ADD, Imputed) was 0.7174. The OR (SNP rs7599198 allele T, model DOM, Imputed) was 0.6201, the OR (SNP rs7600050 allele C, model ADD, Imputed) was 1.294 and the OR (SNP rs7607712 allele T, model ADD, Imputed) was 1.401. It also gave an OR (SNP rs7607712 allele T, model DOM, Imputed) of 1.477, an OR (SNP rs7621663 allele G, model ADD, Imputed) of 1.413 and an OR (SNP rs7621663 allele G, model REC, Imputed) of 2.257. The OR (SNP rs7626584 allele G, model ADD, Imputed) was 0.4778, the OR (SNP rs7684899 allele C, model ADD, Imputed) was 0.7138 and the OR (SNP rs7684899 allele C, model DOM, Imputed) was 0.6634. It also gave an OR (SNP rs7701604 allele G, model ADD, Imputed) of 0.2198, an OR (SNP rs7701604 allele G, model DOM, Imputed) of 0.2258 and an OR (SNP rs7703676 allele C, model ADD, Imputed) of 0.2198. It also gave an OR (SNP rs7703676 allele C, model DOM, Imputed) of 0.2258, an OR (SNP rs7708491 allele C, model REC, Imputed) of 0.5462 and an OR (SNP rs7711358 allele A, model DOM, Imputed) of 0.6489. The OR (SNP rs7719448 allele G, model REC, Imputed) was 0.525, the OR (SNP rs7724761 allele T, model REC, Imputed) was 0.528 and the OR (SNP rs7742476 allele T, model DOM, Imputed) was 1.752. It also gave an OR (SNP rs7762993 allele A, model ADD, Imputed) of 1.568, an OR (SNP rs7762993 allele A, model DOM, Imputed) of 1.808 and an OR (SNP rs7767265 allele G, model ADD, Imputed) of 1.626. For the same compound, the OR (SNP rs7767265 allele G, model DOM, Imputed) was 1.904, the OR (SNP rs7768128 allele G, model REC, Imputed) was 0.3796 and the OR (SNP rs7771264 allele T, model DOM, Imputed) was 0.6735. For the same compound, the OR (SNP rs7773151 allele C, model DOM, Genotyped) was 0.6804, the OR (SNP rs7773210 allele A, model DOM, Genotyped) was 0.6745 and the OR (SNP rs7808536 allele G, model DOM, Imputed) was 1.395. For the same compound, the OR (SNP rs7843510 allele G, model DOM, Genotyped) was 1.623, the OR (SNP rs7894867 allele T, model DOM, Imputed) was 1.6 and the OR (SNP rs36071725, allele (A1) C, model ADD, Genotyped) was 1.524. For the same compound, the OR (SNP rs41395945, allele (A1) G, model ADD, Imputed) was 1.706, the OR (SNP rs41395945, allele (A1) G, model DOM, Imputed) was 1.77 and the OR (rs198461 allele C, DOM model, Imputed) was 0.625. The OR (rs208757 allele G, ADD model, Imputed) was 1.552, the OR (rs208757 allele G, DOM model, Imputed) was 1.649 and the OR (rs264126 allele C, DOM model, Imputed) was 0.553. The OR (rs264129 allele T, DOM model, Imputed) was 0.561, the OR (rs483159 allele A1=T, model DOM, Imputed, pravastatin vs placebo) was 1.425 and the OR (rs489441 allele A1=G, model ADD, Imputed, pravastatin vs placebo) was 1.446. It also gave an OR (rs489441 allele A1=G, model DOM, Imputed, pravastatin vs placebo) of 1.584, an OR (rs1116596 allele T, DOM model, Imputed) of 0.6531 and an OR (rs1149349 allele T, DOM model, Imputed) of 1.696. It also gave an OR (rs1149350 allele A, ADD model, Imputed) of 1.592, an OR (rs1149350 allele A, DOM model, Imputed) of 1.701 and an OR (rs1782328 allele A, ADD model, Imputed) of 0.613. The OR (rs1796337 allele T, DOM model, Imputed) was 0.597, the OR (rs1798083 allele C, DOM model, Imputed) was 0.601 and the OR (rs1798085 allele T, DOM model, Imputed) was 0.578. The OR (rs1798086 allele T, DOM model, Imputed) was 0.553, the OR (rs1798089 allele C, REC model, Imputed) was 2.101 and the OR (rs1798090 allele C, REC model, Imputed) was 2.054. It also gave an OR (rs1832222 allele G, DOM model, Imputed) of 1.786 and an OR (rs1838104 allele A, ADD model, Imputed) of 0.727.
